The whole screen tested about 320,000 compounds, of which about 2,100 (0.66%) were called active. Inconclusive results, whose numbers are uncertain, are shown with a selection of clear calls. Calls follow the shape of the dose curve; as a rule, active = well fitted inhibition curve with a large enough effect in the signal ratio, with a control signal flat (not every such curve was filed as active); inconclusive = small, poorly fitted or top-dose-only effect, or effect the other way, or a change in a side signal; inactive = flat fitted curve, though single readings scatter; the % refers to the signal ratio. Potencies of inconclusive entries are doubtful fits and often do not repeat.
Assay: qHTS Assay for Lipid Storage Modulators in Drosophila S3 Cells
Conditions: BODIPY lipid droplet fluorescence, 18-24 h, cells fed with added oleic acid; lipid storage change, negative = inhibition: at 46.1 µM (top of the series) unless noted
Source text: NIH Molecular Libraries Probe Production Centers Network [MLPCN] NIH Chemical Genomics Center [NCGC] MLPCN Grant: 1 R03 MH085686-01 Assay Submitter (PI): Beller, Mathias; Max-Planck-Institut fur Biophysikalische Chemie NCGC Assay Overview: Storing lipids as a reservoir for energy or the anabolism of elementary metabolites is a common feature of probably all cells and is conserved from bacteria to humans. The universal cellular lipid storage organelle is the so-called lipid storage droplet (LD). Although ubiquitous, LDs share a simple structure composed of a hydrophobic core that harbors the storage lipids, which is shielded by a droplet-specific phospholipid monolayer to which proteins are attached. The current model of LD biogenesis involves an incorporation of the lipid core into the membrane leaflets of the endoplasmic reticulum (ER) followed by a subsequent budding-like maturation of a LD, which ultimately pinches off. Once released, LD volume can increase by localized lipogenesis or fusion of existing droplet. Storage lipids are re-mobilized enzymatically by lipase activity. Lipase regulation in the adipocyte is heavily studied and involves multiple components including catecholamine signaling, the LD-associated proteins Perilipin and comparative gene identification (CGI-58) and at least two lipases named hormone sensitive lipase (HSL) and adipocyte triglyceride lipase (ATGL). LD regulation outside of the adipocyte is poorly understood and only few components are known. However, there is an urgent need to learn more about ectopic fat depots as mislocalized storage of lipids, for example in the liver or muscle, is an eminent health problem associated with insulin resistance or the metabolic syndrome. We developed a laser-scanning cytometer assay to enable 1,536-well screening and combined the results of the small molecules screen with an RNAi database based on lipid storage.
Triacsin C (Sigma-Aldrich T-4540), an inhibitor of long-chain fatty acyl CoA synthetase that blocks synthesis of triglycerides, was used as a positive control for lipid under-storage. A total of 23 nL of compound solution of different concentrations were transferred to the assay plates using a Kalypsys pin tool equipped with a 1,536-pin array containing 10-nL slotted pins (FP1S10, 0.457-mm diameter, 50.8 mm long; V&P Scientific). One microliter of oleic acid (400 uM) was added, and the plate was lidded with stainless steel rubber gasket lined lids containing pinholes. […] Fluorescence was detected by excitation of the fluorophores with a 488-nm laser on an Acumen Explorer (TTP Lab Tech). The total intensity in channel 2 (500-530 nm) reflected lipid droplet accumulation. Cells were detected using channel 3 (575-640 nm) with 5-um width and 100-um depth filters. The ratio of the number of objects in PMT channel 2 over the number of objects in PMT channel 3 was also calculated. Percent activity was computed relative to an internal control (100% inhibited lipid droplet deposition due to the presence of 20 uM Triacsin C), which was added to 32 wells/plate.
In the case of `O=C(COc1ccccc1Cl)NNC(=O)Cn1[nH]c(=O)c2ccccc2c1=O`, the lipid storage change, negative = inhibition is reported as inconclusive: 17.7%.
With `Brc1ccccc1-c1csnn1` the lipid storage change, negative = inhibition was inconclusive: 1.31%.
For `Cc1nc2ccccc2n1Cc1ccc(Cl)cc1`, the Potency was inconclusive: 0.116 µM [falling, full curve, poor fit].
In the case of `COCCN1C(=O)C(=O)/C(=C(/O)c2ccc(S(=O)(=O)N3CCOCC3)cc2)C1c1ccc(O)c(OC)c1` (stereo not drawn), the lipid storage change, negative = inhibition is reported as inconclusive: -0.765%.
In the case of `Cn1c(=O)c2[nH]c(N=NNc3ccccc3F)nc2n(C)c1=O`, the lipid storage change, negative = inhibition is reported as inconclusive: -4.85%.
In the case of `CC(C)CCNC(=O)c1cccnc1Sc1ccccc1`, the lipid storage change, negative = inhibition is reported as inconclusive: 24.9%.
For `Cc1ccc(F)c(NC=C2C(=O)OC(C)(C)OC2=O)c1`, the lipid storage change, negative = inhibition was “inactive”.
For `Fc1ccc2nc(N3CCOCC3)sc2c1`, the lipid storage change, negative = inhibition was inconclusive: 8.43%.
In the case of `Cc1ccc(CNc2oc(-c3cccs3)nc2C#N)cc1`, the lipid storage change, negative = inhibition is reported as inconclusive: 54.9%.
For `COc1ccccc1CCNS(=O)(=O)c1cc2c3c(c1)CCN3C(=O)CC2`, the lipid storage change, negative = inhibition was inconclusive: 44.3% [at 0.0737 µM].
In the case of `C[C@]12C(=O)N(c3ccc(C(F)(F)F)cc3)C(=O)N1[C@@H]1c3ccccc3OC[C@@H]1[C@H]2c1ccccc1`, the lipid storage change, negative = inhibition is reported as inconclusive: 62.2%.
With `Cc1cc(=O)oc2cc(OC(C(=O)O)c3ccccc3)ccc12` (stereo not drawn) the lipid storage change, negative = inhibition was inconclusive: -32.1%.
For `COc1ccc(C(=O)N2CCN(C(=O)c3ccc(-c4ccccc4)cc3)CC2)cc1OC`, the lipid storage change, negative = inhibition was inconclusive: 2.12%.
In the case of `COc1ccc2c(c1OC)C(=O)NC(C)=C(C(=O)OC(C)(C)C)C2O` (stereo not drawn), the Potency is reported as active: 14.6 µM.
With `OCCCNc1cc(-c2ccnc(Nc3cccc(Cl)c3)n2)ccn1` the Potency was active: 6.51 µM.
For `NC(=O)CC[C@H](NC(=O)c1ccc(F)cc1)C(=O)OCC(=O)Nc1c(F)c(F)c(F)c(F)c1F`, the lipid storage change, negative = inhibition was inconclusive: 3.89%.
With `CCCCc1ccc(S(=O)(=O)Nc2ccc(C)c(NS(C)(=O)=O)c2)cc1` the lipid storage change, negative = inhibition was inconclusive: -16.8%.
In the case of `Cn1c(=O)n(C)c2cc([N+](=O)[O-])c(N3CCN(S(C)(=O)=O)CC3)cc21`, the lipid storage change, negative = inhibition is reported as inconclusive: 1.55%.
For `Cc1ccc(CN2CCC(Oc3cccc(C(=O)N(C)CCN(C)C)c3)CC2)cc1C`, the lipid storage change, negative = inhibition was inconclusive: -28.9%.
In the case of `CCOc1ccccc1N1CCN(C(=O)c2cc[n+]([O-])cc2)CC1`, the lipid storage change, negative = inhibition is reported as inconclusive: -1.74%.
In the case of `Nc1ncc2c(n1)-c1ccoc1CC2`, the lipid storage change, negative = inhibition is reported as inconclusive: 6.7%.
With `CC(=O)c1ccc(NC(=O)c2ccc(-n3cnnn3)cc2)cc1` the lipid storage change, negative = inhibition was “inconclusive”.
For `O=S(=O)(NC1CC(NS(=O)(=O)OCC(Cl)(Cl)Cl)C2CCCCC12)OCC(Cl)(Cl)Cl` (stereo not drawn), the lipid storage change, negative = inhibition was inconclusive: -100%.
For `O=Cc1cc(Cl)ccc1OCCN1CCC(Cc2ccccc2)CC1`, the lipid storage change, negative = inhibition was inconclusive: -10.1%.
With `O=C(COC(=O)/C=C/c1nc2ccccc2s1)Nc1ccccc1Oc1ccccc1` the Potency was inconclusive: 18.4 µM [activator, single point].
In the case of `Cc1cc(S(=O)(=O)n2[nH]c(=O)c(CCO)c2C)c(Cl)cc1Cl`, the lipid storage change, negative = inhibition is reported as inconclusive: -26.7%.
With `Cc1cccc(N(Cc2cc(=O)[nH]c3ccccc23)C(=O)CCl)c1` the Potency was active: 20.6 µM.
In the case of `CCOc1cc(C(=O)OCc2ccc(C(=O)OC)o2)cc(Br)c1OC`, the lipid storage change, negative = inhibition is reported as inconclusive: 38.4%.
With `COc1c[nH]n(C2CCCCC2)c(=O)c1=O` the Potency was inconclusive: 0.116 µM [falling, full curve, poor fit].
For `COc1cccc(OCC(O)CN2C(C)CCCC2C)c1` (stereo not drawn), the lipid storage change, negative = inhibition was inconclusive: -5.57%.
With `Cc1noc(-c2ccccc2OC(=O)c2ccccc2)n1` the Potency was inconclusive: 29.1 µM [falling, single point].
For `O=C1c2ccccc2NC(c2cn[nH]c2-c2ccccc2)N1O` (stereo not drawn), the lipid storage change, negative = inhibition was inconclusive: 28.1%.
In the case of `O=C(NCC1CCCO1)c1cccc(NC(=O)c2ccco2)c1` (stereo not drawn), the lipid storage change, negative = inhibition is reported as inconclusive: 19.3%.
For `CC1CN(CCOc2ccc(F)cc2)CC(C)O1` (stereo not drawn), the lipid storage change, negative = inhibition was inconclusive: 36.5%.
In the case of `Cc1ccc(C)c(NC(=O)c2cc(C)nc3ccccc23)c1`, the lipid storage change, negative = inhibition is reported as inconclusive: 37.2%.
With `Cc1nc2cc(Cl)c(Cl)cc2n1-c1ccccn1` the Potency was inconclusive: 2.31 µM [falling, partial curve, poor fit].
With `N#Cc1nc(-c2ccccc2F)oc1NC1CCCCC1` the lipid storage change, negative = inhibition was inconclusive: 5.21%.
In the case of `CN(C)S(=O)(=O)c1ccc(Oc2ccccc2)cc1`, the lipid storage change, negative = inhibition is reported as inconclusive: 18.3%.
In the case of `CC(=O)Nc1ccc(NC(=O)CCC(=O)NCCO)cc1`, the lipid storage change, negative = inhibition is reported as inconclusive: -12.8%.
For `CN1CCN(c2ccccc2NC(=O)c2cccc([N+](=O)[O-])c2)CC1`, the lipid storage change, negative = inhibition was inconclusive: 135%.
For `Cc1ccccc1-c1nc(CS(=O)(=O)CC(=O)N2CCCCC2)c(C)o1`, the lipid storage change, negative = inhibition was inconclusive: -0.592%.
With `CCOc1ccc(OCCn2c(S(=O)(=O)O)nc3c(N)ncnc32)cc1` the Potency was inconclusive: 20.6 µM [falling, single point].
For `Cc1nc(C(=O)Nc2ccccc2Cl)cc2c1[nH]c1ccccc12`, the Potency was inconclusive: 18.4 µM [falling, single point].
With `COc1ccc(C)cc1S(=O)(=O)N1CCCC(C(=O)N2CCN(c3ccccc3)CC2)C1` (stereo not drawn) the lipid storage change, negative = inhibition was inconclusive: 35.9%.
For `O=C(/C=C/c1ccc(S(=O)(=O)N2CCOCC2)cc1)NC(=S)Nc1ccc(N2CCOCC2)cc1`, the lipid storage change, negative = inhibition was inconclusive: 7.41%.
For `COc1ccc(CCNC(=O)C(=O)NCc2ccccc2)cc1OC`, the Potency was inconclusive: 13 µM [activator, partial curve, poor fit].
For `COc1ccc(C(=O)NC(=S)N2CCCCC2c2cccnc2)cc1OC` (stereo not drawn), the lipid storage change, negative = inhibition was inconclusive: -31.2%.
In the case of `CCSc1nc(-c2ccccc2)cc(=O)[nH]1`, the lipid storage change, negative = inhibition is reported as inconclusive: 9.15%.
With `C=CCN1C(=O)C(CC(=O)Nc2ccccc2)SC1=Nc1ccc(S(N)(=O)=O)cc1` (stereo not drawn) the lipid storage change, negative = inhibition was inconclusive: -4.27%.
For `O=C(NNS(=O)(=O)c1ccc(F)cc1F)C1Cc2c(ccc3ccccc23)O1` (stereo not drawn), the lipid storage change, negative = inhibition was inconclusive: -18.2%.
With `CC1CCN(C(=O)CCN2C(=O)C3C4C=CC(C4)C3C2=O)CC1` (stereo not drawn) the lipid storage change, negative = inhibition was inconclusive: 11.1%.
With `CN1/C(=C/C(=O)c2ccc(Cl)cc2)Sc2cc3c(cc21)OCO3` the lipid storage change, negative = inhibition was inconclusive: -0.904%.
For `CC(C)[C@H](NC(=O)C1CC(=O)N(c2ccc3c(c2)OCCO3)C1)C(=O)NC1CCCC1` (stereo partly drawn), the lipid storage change, negative = inhibition was inconclusive: -196%.
% is scaled to controls: 0 for no effect and ±100 for the full control effect; potency is read from the fitted curve at half-maximal effect.
